For at least one entry, the source does not settle the construct or the ends of the probe. Results from cells or extracts need not show a direct contact. For some assays here: No signal at the amounts used counts as a negative. Protein sequences can lack the tags named with them.
Key:
HSF5 (Mus musculus) [1] = target: T1, HSF5 (Mus musculus) (UniProt Q5ND04); assay: EMSA; settings: nuclear extract, signal undetectable with excess (100-fold) unlabeled target probe; Beyotime EMSA/Gel-Shift Kit GS009; competitor or antibody preincubated 20 min (antibody at room temperature); 5% polyacrylamide gel in TBE; protein in an extract; label: 5'-Cy5 (labeled probe), unlabeled as competitor
T1 sequence (looked up, limits assumed): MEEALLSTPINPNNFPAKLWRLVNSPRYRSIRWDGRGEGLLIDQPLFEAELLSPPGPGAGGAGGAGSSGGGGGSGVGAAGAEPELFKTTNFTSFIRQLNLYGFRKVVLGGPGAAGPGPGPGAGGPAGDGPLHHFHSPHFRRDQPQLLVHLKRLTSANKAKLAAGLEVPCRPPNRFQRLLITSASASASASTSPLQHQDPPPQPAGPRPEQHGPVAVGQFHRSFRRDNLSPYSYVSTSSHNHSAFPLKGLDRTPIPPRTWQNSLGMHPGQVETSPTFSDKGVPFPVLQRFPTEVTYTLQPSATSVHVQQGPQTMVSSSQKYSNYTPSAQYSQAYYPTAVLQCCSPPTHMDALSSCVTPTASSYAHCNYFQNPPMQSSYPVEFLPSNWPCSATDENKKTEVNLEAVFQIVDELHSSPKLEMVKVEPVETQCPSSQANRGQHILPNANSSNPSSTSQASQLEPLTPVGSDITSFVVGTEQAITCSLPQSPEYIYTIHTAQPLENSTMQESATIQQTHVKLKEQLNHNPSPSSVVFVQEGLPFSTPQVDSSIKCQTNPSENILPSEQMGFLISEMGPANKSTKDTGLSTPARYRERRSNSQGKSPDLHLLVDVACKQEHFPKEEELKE

HSF5 (Mus musculus) [2] = target: T1, HSF5 (Mus musculus); assay: competition with a labelled probe; settings: 100-fold excess mutant probe did not abolish binding to N1; Beyotime EMSA/Gel-Shift Kit GS009; competitor or antibody preincubated 20 min (antibody at room temperature); 5% polyacrylamide gel in TBE; protein in an extract; label: 5'-Cy5

| Sequence | binding result (HSF5 (Mus musculus) [1]) | binding result (HSF5 (Mus musculus) [2]) |
| --- | --- | --- |
| CCGGTGTAGAACGCTCAGA (double strand) [Slc25a42 promoter probe (heptamer TAGAACG)] | binds | – |
| CCGGTGTTACAGTCTCAGA (double strand) [mutant probe] | – | no binding |
